Source: publication PMC10165269
No constants are given. Whether binding was seen depends on the method and setting. In cells and extracts the contact can be indirect. Some results given as binding are weak or reduced against the parent protein; the word gives no strength.

Protein sequences, listed by entry. Tags and fused reporters are not part of them.
UniProt Q7Z434: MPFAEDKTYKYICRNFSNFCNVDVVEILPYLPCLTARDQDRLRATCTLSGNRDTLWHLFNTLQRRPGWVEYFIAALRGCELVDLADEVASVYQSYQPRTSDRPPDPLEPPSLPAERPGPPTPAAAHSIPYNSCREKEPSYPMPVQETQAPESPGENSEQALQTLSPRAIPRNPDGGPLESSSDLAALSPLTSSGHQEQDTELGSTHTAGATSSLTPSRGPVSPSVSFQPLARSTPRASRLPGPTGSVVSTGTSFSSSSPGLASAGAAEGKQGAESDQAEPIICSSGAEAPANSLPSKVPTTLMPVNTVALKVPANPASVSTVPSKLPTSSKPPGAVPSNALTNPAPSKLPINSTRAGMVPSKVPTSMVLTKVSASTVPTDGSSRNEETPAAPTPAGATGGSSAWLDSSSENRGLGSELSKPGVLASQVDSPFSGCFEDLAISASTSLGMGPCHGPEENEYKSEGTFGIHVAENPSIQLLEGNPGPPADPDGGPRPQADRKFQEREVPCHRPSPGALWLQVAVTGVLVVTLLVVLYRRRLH
UniProt Q13263: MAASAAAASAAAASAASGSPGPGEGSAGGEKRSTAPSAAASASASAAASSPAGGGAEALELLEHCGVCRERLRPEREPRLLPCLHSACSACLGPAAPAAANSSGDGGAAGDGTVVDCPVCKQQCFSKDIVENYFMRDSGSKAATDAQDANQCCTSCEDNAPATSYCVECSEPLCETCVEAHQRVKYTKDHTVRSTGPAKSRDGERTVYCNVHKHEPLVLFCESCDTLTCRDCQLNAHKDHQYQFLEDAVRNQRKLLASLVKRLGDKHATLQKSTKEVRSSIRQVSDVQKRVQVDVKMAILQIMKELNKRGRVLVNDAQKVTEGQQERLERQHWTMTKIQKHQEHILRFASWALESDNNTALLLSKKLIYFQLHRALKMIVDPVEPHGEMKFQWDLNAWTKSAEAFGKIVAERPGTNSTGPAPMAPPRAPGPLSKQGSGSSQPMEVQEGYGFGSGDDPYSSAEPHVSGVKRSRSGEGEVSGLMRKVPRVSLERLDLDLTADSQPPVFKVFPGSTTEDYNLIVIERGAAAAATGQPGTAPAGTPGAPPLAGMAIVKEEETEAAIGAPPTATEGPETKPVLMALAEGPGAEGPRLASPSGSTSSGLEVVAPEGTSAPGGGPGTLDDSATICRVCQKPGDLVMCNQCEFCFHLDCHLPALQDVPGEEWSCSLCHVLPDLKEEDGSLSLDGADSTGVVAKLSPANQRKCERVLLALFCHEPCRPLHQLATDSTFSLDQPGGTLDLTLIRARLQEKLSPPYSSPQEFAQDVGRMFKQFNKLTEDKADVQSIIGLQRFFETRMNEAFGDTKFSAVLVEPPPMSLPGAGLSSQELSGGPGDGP

Assays:
HA-tagged MAVS (human) = HA-tagged MAVS (human) (UniProt Q7Z434); test: co-IP; 293T cells cotransfected with HA-tagged MAVS and Flag-tagged TRIM28 or its mutants, 48 h; RIPA lysate; immunoprecipitated with an anti-HA antibody on Protein A/G magnetic beads, 2 h at 4 °C; immunoblot with an anti-Flag antibody
[1] = biological target: mitochondrial antiviral signaling (MAVS) protein, endogenous (human (endogenous in HEK293T)) (UniProt Q7Z434); test: co-IP; endogenous proteins of 293T cells, uninfected or infected with SeV (MOI = 1) for the indicated times; RIPA lysate; immunoprecipitated with an anti-MAVS antibody on Protein A/G magnetic beads, 2 h at 4 °C; immunoblot with an anti-TRIM28 antibody

Substance	binding (HA-tagged MAVS (human))	binding [1]
Flag-tagged TRIM28 (TRIM28-WT) (from UniProt Q13263 1-835)	binds	
tripartite motif 28 (TRIM28), endogenous (from UniProt Q13263 1-835)		binds
